Results on 54 compounds are retold here after PubChem BioAssay AID1671190 (National Center for Advancing Translational Sciences (NCATS), 2021).

Protein sequences, listed by entry. Tags and fused reporters are not part of them.
UniProt P18054, whole entry, looked up: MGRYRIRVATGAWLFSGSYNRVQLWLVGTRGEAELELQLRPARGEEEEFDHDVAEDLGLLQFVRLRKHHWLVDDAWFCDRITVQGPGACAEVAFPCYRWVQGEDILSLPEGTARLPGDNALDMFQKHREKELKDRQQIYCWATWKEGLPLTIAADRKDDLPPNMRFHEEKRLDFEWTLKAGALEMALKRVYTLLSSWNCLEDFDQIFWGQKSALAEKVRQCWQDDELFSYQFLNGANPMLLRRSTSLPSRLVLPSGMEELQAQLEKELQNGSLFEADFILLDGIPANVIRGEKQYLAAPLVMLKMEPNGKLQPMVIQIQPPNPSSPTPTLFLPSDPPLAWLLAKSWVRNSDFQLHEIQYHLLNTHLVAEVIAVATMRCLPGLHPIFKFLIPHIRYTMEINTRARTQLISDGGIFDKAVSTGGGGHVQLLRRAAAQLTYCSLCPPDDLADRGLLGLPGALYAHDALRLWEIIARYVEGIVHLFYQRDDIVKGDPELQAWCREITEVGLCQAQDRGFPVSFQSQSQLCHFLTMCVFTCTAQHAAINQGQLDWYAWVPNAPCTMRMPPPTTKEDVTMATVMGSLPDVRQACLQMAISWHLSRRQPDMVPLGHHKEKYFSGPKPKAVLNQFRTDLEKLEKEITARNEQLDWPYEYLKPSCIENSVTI

The campaign covered roughly 580,000 compounds. About 6,100 (1.1%) were called active. About 15% were inconclusive and are not listed. Calls follow the shape of the dose curve; as a rule, active = well fitted inhibition curve with a large enough effect; inconclusive = small, poorly fitted or top-dose-only effect, or another doubt; inactive = no such curve, though single readings can be large or run the other way. Only a part is listed here, and it is no random draw. Entries without a call were filed so in the source.
% is scaled to controls: 0 for no effect and ±100 for the full control effect; potency is read from the fitted curve at half-maximal effect.

The test addresses Polyunsaturated fatty acid lipoxygenase ALOX12 (Homo sapiens) (UniProt P18054). Nature of the test: Primary qHTS assay for inhibitors of human arachidonate 12S-lipoxygenase (ALOX12): Round 2. The settings on record: purified 12hLO, xylenol orange hydroperoxide absorbance; activity change, negative = inhibition: at 0.00344 µM (top of the series) unless noted. An outline of the steps: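 Purified human 12hLO (150 nM final) in 25 mM Hepes, 0.01% Triton X-100, pH 7.0 was preincubated 15 min at room temperature with compound. Then 40 uM arachidonic acid was added, 30 min. Hydroperoxide was read by Fe-XO absorbance ratio 573/405 nm.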
On the technique in general: Quantitative high-throughput screening tests each substance at several concentrations.
For `CCc1cccc2c(CCO)c[nH]c12`, the activity change, negative = inhibition is -17.5%.

For the compound `COc1ccc(Cc2n[nH]c(=S)n2CC(C)C)cc1`, the Potency was active: 14.1 µM.

For the compound `Cc1ccc(S(=O)(=O)/N=C2/NC(=O)/C(=C/c3ccc(Br)o3)S2)cc1`, the Potency is active: 1 µM.

Regarding `COc1ccc(CNC(=S)NCc2ccc(Cl)cc2)cc1OC`, the Potency was active: 50.1 µM.

For the compound `c1ccc2[nH]c(-c3cscn3)nc2c1`, the activity change, negative = inhibition is 12.1%.

On to `CCCC(=O)Nc1ccc2nc(N3CCN(C(=O)OCC)CC3)cc(C(=O)O)c2c1`, for which the Potency was active: 7.94 µM.

As to `CC(C)(C)C(=O)OCC1CCC[N+]2(C)CCCCC12` (centres undefined), the Potency is active: 28.2 µM.

Regarding `CC(C)C[C@H]1CNC(=S)N1C[C@H]1CCCN1C[C@H](Cc1ccccc1)N1C[C@H](Cc2ccc(O)cc2)N(CC2CCCCCC2)C1=S`, the Potency was active: 39.8 µM.

With `CNCCC(Oc1ccc(C(F)(F)F)cc1)c1ccccc1` (centres undefined), the activity change, negative = inhibition was 22.3%.

Take `C[C@@H](CN1CC(=O)NC(=O)C1)N1CC(=O)NC(=O)C1`: the activity change, negative = inhibition is -12.1%.

As for `CC(=O)Nc1ccc(CC(=O)O)cc1`, the activity change, negative = inhibition is -20.5%.

`CC(=O)OCC(=O)[C@@]12N=C(C)O[C@@H]1C[C@H]1[C@@H]3CCC4=CC(=O)C=C[C@]4(C)[C@H]3[C@@H](O)C[C@@]12C`: the activity change, negative = inhibition came out at 20.9%.

`O=C(c1cc(O)c(O)c(O)c1)c1ccc(O)c(O)c1O`: the activity change, negative = inhibition is -28.8%.

With `CCN1CC(CCN2CCOCC2)C(c2ccccc2)(c2ccccc2)C1=O` (centres undefined), the activity change, negative = inhibition was -22.9%.

Consider `C[C@H]1[C@H](NC(=O)/C(=N/OC(C)(C)C(=O)O)c2csc(N)n2)C(=O)N1S(=O)(=O)O` (stereo in doubt), for which the activity change, negative = inhibition stood at 10.2%.

For the compound `COc1ccc2nc(NC(=O)Nc3ccccc3)sc2c1`, the activity change, negative = inhibition was determined as 13.6%.

In the case of `CCOC(=O)OC(C)OC1=C(C(=O)Nc2ccccn2)N(C)S(=O)(=O)c2ccccc21` (centres undefined), the activity change, negative = inhibition came to 38.1%.

In the case of `COC(=O)c1cc(-c2ccco2)nc2c(Cl)cccc12`, the Potency was active: 22.4 µM.

As to `CCCCNC(=O)NS(=O)(=O)c1ccc(C)cc1`, the activity change, negative = inhibition is 0.828%.

Take `Cc1cc(O)cc2c1O[C@](C)(CCC[C@H](C)CCC[C@H](C)CCCC(C)C)CC2`: the activity change, negative = inhibition is -23%.

Take `COC(=O)c1c(C)[nH]c(-c2csc(NC3CC3)n2)c1C`: the Potency is active: 31.6 µM.

With `CCOc1ccccc1OCCN[C@H](C)Cc1ccc(OC)c(S(N)(=O)=O)c1`, the activity change, negative = inhibition was -29.2%.

As for `O=S(=O)(O)CCS`, the activity change, negative = inhibition worked out at 0.572%.

For `CCn1cc(C(=O)O)c(=O)c2cnc(N3CCCC3)nc21`, the activity change, negative = inhibition was 17.6% [at 0.000995 µM].

In the case of `CCOc1ccc(-c2nc(=S)[nH][nH]2)cc1`, the Potency is active: 25.1 µM.

Turning to `CC1(C)NC(=O)N(c2ccc([N+](=O)[O-])c(C(F)(F)F)c2)C1=O`, the activity change, negative = inhibition was -6.88%.

Turning to `O=C(O)c1ccccc1-c1ccc(C(F)(F)F)cc1`, the activity change, negative = inhibition is -4.78%.

As to `Cc1c(C)n(CCN(C)C)c2ccc(C(=O)OCCN(C)C)cc12`, the activity change, negative = inhibition is -13.8%.

For the compound `CCCCCCCCCCCCSCCOCCO`, the activity change, negative = inhibition was 25.8%.

Take `Cc1nc2n(c(=O)c1CCN1CCC(C(=O)c3ccc(F)cc3)CC1)CCS2`: the activity change, negative = inhibition is -13.4%.

`CN(C)C(=O)Oc1cccc([N+](C)(C)C)c1`: the activity change, negative = inhibition was -11.6%.

As for `N#C/C(=C/c1ccc(O)c(O)c1)c1nc2ccccc2[nH]1`, the Potency is active: 7.94 µM.

Take `O=C(Oc1cccc2cccnc12)c1ccccc1`: the activity change, negative = inhibition is -7.54%.

With `O=c1[nH]cnc2[nH]ncc12`, the activity change, negative = inhibition was -2.49%.

Consider `Clc1ccc(C2C=C(c3ccccc3)Nc3nnnn32)c(Cl)c1` (centres undefined), for which the Potency is active: 17.8 µM.

For the compound `CCCCCCCCCCC(CO)CCCCCCCC` (centres undefined), the activity change, negative = inhibition worked out at 0.912%.

Regarding `CCCC(=O)OCOC(=O)C1=C(C)NC(C)=C(C(=O)OC)C1c1cccc(Cl)c1Cl` (centres undefined), the activity change, negative = inhibition is -13%.

Take `CN(C/C=C/C#CC(C)(C)C)Cc1cccc2ccccc12`: the activity change, negative = inhibition was 25.2%.

For the compound `FC1(F)C(F)(F)C(F)(F)C2(F)C(F)(F)C(F)(F)C(F)(F)C(F)(F)C2(F)C1(F)F` (centres undefined), the activity change, negative = inhibition was determined as 47.1%.

Regarding `O=C1OC(/C=C/c2ccc(Cl)cc2Cl)=NC/1=C\c1cccs1`, the Potency was active: 35.5 µM.

Turning to `O=C1Nc2ccccc2C1(c1ccc(O)cc1)c1ccc(O)cc1`, the activity change, negative = inhibition stood at 4.18%.

Regarding `NC(=O)COCCN1CCN(C(c2ccccc2)c2ccc(Cl)cc2)CC1` (centres undefined), the activity change, negative = inhibition was determined as 25.2%.

`CNC(=O)Oc1ccc2c(c1)[C@]1(C)CCN(C)[C@@H]1N2C`: the activity change, negative = inhibition was -3.76%.

Take `CCN=C(N/N=C/c1ccc([N+](=O)[O-])cc1)SC`: the Potency was active: 31.6 µM.

On to `O=[N+]([O-])c1ccc(/C=N\O)o1`, for which the activity change, negative = inhibition was -27.4%.

In the case of `COc1ccc2c(c1)CCCC2=O`, the activity change, negative = inhibition stood at 1.28%.

As for `CC(O)CCCCn1c(=O)c2c(ncn2C)n(C)c1=O` (centres undefined), the activity change, negative = inhibition is -3.26%.

Regarding `N[C@@H](CSSC[C@H](N)C(=O)O)C(=O)O`, the activity change, negative = inhibition was -25.6% [at 37.5 pM].

Regarding `CC(C)=CCC1C(=O)N(c2ccccc2)N(c2ccccc2)C1=O`, the activity change, negative = inhibition is -5.72%.

For `CCOc1ccccc1OCc1nn2c(C3COc4ccccc4O3)nnc2s1` (centres undefined), the Potency was active: 7.08 µM.

In the case of `Cc1cccc(OCC(O)CNC(C)(C)C)c1C` (centres undefined), the activity change, negative = inhibition stood at 23.8%.

Turning to `COc1ccc2nc(/C(C#N)=C\c3ccco3)[nH]c2c1`, the Potency was active: 39.8 µM.

For the compound `CCOC(=O)Nc1ccc(NCc2ccc(F)cc2)nc1N`, the activity change, negative = inhibition stood at 15.8%.

On to `Cc1coc2ccccc2c1=O`, for which the activity change, negative = inhibition is -32%.
